Results taken from the supplement of paper PMC12067093, “Discovery and optimisation of a covalent ligand for TRIM25 and its application to targeted protein ubiquitination” (Chemical Science, 2025).
The list shows a part of the results.

Amino acid sequences for entries named in this document (tags omitted). A change or cut given only in a name is not applied to a line headed by its entry.
UniProt O43913: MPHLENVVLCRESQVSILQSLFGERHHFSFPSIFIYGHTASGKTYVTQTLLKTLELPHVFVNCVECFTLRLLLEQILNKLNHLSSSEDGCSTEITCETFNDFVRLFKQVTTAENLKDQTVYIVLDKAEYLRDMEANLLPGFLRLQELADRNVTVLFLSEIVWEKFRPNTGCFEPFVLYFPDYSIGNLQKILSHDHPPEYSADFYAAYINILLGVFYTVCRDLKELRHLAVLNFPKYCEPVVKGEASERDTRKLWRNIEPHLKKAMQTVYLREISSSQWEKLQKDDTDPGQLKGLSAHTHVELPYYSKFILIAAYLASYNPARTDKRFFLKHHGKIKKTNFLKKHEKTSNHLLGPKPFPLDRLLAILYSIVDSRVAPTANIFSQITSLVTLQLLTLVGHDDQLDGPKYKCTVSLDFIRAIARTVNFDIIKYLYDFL
UniProt Q9UNF0: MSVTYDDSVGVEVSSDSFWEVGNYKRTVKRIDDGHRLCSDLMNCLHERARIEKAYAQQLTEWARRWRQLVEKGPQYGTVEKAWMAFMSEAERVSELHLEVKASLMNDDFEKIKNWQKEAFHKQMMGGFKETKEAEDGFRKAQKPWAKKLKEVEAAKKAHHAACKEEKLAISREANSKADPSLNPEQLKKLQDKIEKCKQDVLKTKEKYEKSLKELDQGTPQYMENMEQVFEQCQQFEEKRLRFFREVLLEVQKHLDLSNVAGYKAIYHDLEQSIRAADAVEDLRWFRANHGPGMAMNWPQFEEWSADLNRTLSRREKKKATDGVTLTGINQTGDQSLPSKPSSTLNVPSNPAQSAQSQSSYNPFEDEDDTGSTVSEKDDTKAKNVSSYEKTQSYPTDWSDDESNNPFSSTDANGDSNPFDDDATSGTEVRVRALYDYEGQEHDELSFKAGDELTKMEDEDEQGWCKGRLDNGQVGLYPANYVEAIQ
UniProt Q6GQQ9: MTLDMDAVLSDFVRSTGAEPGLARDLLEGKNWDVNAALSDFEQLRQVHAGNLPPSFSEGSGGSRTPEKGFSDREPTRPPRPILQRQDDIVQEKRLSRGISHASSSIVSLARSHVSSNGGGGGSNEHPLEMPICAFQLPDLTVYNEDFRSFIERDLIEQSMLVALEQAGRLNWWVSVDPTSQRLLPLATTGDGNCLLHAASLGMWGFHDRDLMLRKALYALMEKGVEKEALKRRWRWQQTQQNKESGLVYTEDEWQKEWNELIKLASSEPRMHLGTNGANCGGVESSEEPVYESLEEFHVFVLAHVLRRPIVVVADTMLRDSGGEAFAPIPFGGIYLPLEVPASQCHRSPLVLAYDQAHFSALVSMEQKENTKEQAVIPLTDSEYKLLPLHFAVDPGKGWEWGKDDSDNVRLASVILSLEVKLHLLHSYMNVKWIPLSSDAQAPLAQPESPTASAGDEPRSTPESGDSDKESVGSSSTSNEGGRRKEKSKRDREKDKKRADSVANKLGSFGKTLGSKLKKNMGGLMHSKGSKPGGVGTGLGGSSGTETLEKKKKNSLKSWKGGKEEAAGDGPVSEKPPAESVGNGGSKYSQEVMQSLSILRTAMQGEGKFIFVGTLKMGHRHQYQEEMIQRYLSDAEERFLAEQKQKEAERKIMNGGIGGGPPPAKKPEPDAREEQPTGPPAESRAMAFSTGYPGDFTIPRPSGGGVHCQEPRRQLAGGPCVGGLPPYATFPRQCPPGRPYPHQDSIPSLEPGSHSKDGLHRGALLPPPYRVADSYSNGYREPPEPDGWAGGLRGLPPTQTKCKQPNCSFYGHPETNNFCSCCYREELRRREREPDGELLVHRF
UniProt Q9Y2J8, whole entry, looked up: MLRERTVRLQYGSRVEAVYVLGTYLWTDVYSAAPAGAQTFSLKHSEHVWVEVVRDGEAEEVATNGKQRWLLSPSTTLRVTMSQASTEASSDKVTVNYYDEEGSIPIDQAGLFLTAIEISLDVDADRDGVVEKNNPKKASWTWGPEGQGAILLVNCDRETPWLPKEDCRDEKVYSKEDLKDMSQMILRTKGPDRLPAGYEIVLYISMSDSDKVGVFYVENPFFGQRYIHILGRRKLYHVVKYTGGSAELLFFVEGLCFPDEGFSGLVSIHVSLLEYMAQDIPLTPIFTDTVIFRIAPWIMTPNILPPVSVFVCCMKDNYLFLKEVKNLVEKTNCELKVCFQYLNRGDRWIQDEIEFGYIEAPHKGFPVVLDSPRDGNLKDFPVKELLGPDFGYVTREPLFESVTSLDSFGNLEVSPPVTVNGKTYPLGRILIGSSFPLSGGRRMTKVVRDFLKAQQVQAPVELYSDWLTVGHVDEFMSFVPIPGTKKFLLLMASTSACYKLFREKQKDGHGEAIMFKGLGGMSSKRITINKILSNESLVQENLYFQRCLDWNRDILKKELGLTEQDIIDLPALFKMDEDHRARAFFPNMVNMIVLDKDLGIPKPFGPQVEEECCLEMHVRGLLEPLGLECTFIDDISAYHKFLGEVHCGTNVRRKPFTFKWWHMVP
UniProt Q8TEW0: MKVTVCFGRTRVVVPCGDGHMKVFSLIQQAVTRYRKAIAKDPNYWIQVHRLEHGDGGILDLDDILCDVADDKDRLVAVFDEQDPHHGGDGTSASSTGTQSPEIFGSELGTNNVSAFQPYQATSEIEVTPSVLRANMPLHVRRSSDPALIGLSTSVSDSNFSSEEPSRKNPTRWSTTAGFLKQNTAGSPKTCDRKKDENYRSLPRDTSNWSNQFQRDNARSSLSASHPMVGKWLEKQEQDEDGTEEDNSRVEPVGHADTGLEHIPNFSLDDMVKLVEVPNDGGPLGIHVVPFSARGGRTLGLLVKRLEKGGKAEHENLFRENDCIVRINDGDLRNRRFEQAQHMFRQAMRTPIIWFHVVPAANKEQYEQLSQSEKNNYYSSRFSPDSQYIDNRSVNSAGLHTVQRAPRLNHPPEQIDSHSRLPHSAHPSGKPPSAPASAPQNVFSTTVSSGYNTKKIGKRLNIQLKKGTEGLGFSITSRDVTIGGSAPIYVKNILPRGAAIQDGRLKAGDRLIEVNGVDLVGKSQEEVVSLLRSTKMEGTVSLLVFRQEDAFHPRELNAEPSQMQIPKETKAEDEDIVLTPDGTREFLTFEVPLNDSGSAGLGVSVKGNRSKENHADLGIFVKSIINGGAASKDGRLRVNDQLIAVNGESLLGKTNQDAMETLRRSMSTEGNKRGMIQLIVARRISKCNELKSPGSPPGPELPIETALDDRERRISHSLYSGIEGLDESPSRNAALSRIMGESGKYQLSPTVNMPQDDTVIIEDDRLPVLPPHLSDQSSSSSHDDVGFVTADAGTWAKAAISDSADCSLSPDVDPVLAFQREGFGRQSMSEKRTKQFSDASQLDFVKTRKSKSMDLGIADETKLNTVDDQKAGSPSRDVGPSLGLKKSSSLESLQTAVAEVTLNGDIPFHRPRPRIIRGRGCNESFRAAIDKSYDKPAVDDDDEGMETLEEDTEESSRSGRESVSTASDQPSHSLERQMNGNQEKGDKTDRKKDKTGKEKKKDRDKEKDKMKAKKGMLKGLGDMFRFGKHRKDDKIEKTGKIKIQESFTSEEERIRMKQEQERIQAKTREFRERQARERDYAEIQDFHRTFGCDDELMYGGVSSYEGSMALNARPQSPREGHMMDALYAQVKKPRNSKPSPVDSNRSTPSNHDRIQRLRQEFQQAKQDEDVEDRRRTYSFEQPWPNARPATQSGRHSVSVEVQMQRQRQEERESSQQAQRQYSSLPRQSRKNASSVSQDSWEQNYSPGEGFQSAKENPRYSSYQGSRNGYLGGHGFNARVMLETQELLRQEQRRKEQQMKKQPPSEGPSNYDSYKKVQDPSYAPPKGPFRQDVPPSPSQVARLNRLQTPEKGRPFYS
UniProt O14841: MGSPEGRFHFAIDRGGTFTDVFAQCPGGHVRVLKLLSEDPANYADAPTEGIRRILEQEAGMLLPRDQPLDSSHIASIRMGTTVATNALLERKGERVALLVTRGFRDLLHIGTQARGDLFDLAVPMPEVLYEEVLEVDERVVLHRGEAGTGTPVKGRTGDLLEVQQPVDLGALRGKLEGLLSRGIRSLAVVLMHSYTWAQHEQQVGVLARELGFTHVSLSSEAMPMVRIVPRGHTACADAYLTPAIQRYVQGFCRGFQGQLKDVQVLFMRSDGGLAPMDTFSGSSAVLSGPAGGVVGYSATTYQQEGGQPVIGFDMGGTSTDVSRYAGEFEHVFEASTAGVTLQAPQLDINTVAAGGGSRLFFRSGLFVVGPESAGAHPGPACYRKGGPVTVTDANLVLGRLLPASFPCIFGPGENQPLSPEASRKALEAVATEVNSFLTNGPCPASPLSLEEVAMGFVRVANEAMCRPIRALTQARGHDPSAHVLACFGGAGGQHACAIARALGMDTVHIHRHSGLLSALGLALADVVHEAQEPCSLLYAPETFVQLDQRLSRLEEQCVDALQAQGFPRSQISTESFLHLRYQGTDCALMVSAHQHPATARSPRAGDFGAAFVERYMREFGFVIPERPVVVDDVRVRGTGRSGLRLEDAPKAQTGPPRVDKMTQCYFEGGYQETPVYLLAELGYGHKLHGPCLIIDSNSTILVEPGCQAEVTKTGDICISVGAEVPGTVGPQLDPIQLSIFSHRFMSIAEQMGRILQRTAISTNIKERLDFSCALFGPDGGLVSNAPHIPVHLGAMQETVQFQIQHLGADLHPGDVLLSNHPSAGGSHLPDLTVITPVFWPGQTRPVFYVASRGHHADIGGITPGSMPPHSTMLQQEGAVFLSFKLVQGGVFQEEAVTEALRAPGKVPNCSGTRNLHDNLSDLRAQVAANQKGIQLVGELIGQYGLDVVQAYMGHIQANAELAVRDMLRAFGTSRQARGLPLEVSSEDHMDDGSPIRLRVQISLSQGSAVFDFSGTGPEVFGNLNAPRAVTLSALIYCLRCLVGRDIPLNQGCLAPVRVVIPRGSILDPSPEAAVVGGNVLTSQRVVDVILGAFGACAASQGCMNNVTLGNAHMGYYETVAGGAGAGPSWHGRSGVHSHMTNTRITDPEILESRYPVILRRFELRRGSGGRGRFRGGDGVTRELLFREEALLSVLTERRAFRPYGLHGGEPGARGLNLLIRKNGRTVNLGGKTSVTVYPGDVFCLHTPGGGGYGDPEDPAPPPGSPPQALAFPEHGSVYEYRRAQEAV
UniProt P22234: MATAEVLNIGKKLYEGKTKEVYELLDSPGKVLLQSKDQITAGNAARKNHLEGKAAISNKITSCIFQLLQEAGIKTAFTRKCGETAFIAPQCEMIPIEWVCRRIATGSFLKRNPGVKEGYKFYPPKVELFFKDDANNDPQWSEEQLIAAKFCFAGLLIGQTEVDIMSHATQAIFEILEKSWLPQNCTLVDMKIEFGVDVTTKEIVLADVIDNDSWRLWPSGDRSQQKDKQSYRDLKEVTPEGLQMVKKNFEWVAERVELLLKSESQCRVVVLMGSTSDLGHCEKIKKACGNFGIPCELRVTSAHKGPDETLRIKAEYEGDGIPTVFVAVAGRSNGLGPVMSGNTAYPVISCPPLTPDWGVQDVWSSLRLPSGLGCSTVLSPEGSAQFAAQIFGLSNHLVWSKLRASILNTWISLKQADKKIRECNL
UniProt Q8N6M0: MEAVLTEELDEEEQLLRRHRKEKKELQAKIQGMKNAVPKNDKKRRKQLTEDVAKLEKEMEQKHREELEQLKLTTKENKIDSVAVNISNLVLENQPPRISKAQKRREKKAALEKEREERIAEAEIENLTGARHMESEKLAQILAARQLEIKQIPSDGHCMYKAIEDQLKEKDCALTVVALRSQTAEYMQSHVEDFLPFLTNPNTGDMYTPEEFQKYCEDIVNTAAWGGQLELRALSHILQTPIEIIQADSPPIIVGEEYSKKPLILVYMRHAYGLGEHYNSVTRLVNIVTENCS
UniProt P51003: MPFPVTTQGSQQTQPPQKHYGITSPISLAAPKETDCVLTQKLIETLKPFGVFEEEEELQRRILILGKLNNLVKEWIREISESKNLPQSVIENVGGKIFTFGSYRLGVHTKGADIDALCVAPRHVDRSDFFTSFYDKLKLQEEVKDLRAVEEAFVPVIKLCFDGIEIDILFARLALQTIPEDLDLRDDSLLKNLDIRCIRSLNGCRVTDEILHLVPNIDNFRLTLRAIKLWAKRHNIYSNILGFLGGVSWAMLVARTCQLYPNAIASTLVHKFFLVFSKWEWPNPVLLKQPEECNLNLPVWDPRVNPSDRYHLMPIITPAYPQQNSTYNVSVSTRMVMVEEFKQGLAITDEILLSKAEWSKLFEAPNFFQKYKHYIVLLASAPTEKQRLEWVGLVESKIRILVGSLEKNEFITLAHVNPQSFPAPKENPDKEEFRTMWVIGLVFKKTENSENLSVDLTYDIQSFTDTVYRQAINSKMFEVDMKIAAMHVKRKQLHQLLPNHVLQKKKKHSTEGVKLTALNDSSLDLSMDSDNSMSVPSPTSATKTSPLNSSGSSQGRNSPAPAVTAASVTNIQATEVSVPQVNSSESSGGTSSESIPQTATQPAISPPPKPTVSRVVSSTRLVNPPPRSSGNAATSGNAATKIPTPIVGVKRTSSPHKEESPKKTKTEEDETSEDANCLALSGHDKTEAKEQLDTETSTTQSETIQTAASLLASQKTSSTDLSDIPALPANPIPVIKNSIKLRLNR

Compound: Cc1cc(ccc1-c1ccccc1)C(=O)N1CCCN(CC1)C(=O)CCl [compound 10]
Test: probe-labelled cysteine peptide fold change vs DMSO (competition) (log2 fold change); higher = less target engagement (more negative = stronger competition)
Details: THP-1, incubation time: 4 h
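Also: competitive profiling in live THP-1 cells: cysteine peptides tagged with an iodoacetamide desthiobiotin (IA-DTB) probe, intensity after compound treatment relative to DMSO-treated cells.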

Row | Target | probe-labelled cysteine peptide fold change (10 µM) | probe-labelled cysteine peptide fold change (50 µM)
1 | ORC5_O43913_10_PHLENVVLCR (UniProt O43913) | -0.0685 | 0.186
2 | PAPSS1_O43252_8_MEIPGSLCK (UniProt O43252) | -0.295 | 0.204
3 | PACSIN2_Q9UNF0_38_LCSDLMNCLHER (UniProt Q9UNF0) | 0.0702 | 0.108
4 | PAFAH1B1_P43034_330_MWDVSTGMCLMTLVGHDNWVR (UniProt P43034) | 0.18 | 0.386
5 | PANK4_Q9NVE7_308_SLLHMISNDIGQLACLHAR (UniProt Q9NVE7) | 0.027 | 0.157
6 | OTUD7B_Q6GQQ9_345_DSGGEAFAPIPFGGIYLPLEVPASQCHR (UniProt Q6GQQ9) | -0.0538 | 0.0712
7 | OSBPL5_Q9H0X9_253_LGTCKPGR (UniProt Q9H0X9) | -0.358 | -0.889
8 | PAPSS1_O43252_165_QIHEGASLPFFEVFVDAPLHVCEQR (UniProt O43252) | 0.21 | 0.147
9 | OXR1_Q8N573_471_ENMPCGETAEFK (UniProt Q8N573) | -0.0436 | -0.217
10 | PADI2_Q9Y2J8_647_FLGEVHCGTNVR (UniProt Q9Y2J8) | -0.0696 | 0.00601
11 | OSGEPL1_Q9H4B0_295_GQILSSAADIAATVQHTMACHLVK (UniProt Q9H4B0) | -0.142 | -0.49
12 | OSBPL1A_Q9BXW6_303_CFDDTIHGFRVPK (UniProt Q9BXW6) | -0.0663 | -0.385
13 | OSGEP_Q9NPF4_160_IFGETIDIAVGNCLDR (UniProt Q9NPF4) | 0.0282 | 0.211
14 | PARD3_Q8TEW0_66_LEHGDGGILDLDDILCDVADDK (UniProt Q8TEW0) | -0.341 | 0.218
15 | PARP10_Q53GL7_50_LGCGGVLTFR (UniProt Q53GL7) | -0.14 | -0.76
16 | OXSM_Q9NWU1_327_CMAAALK (UniProt Q9NWU1) | -0.172 | 0.0191
17 | PARP4_Q9UKK3_12_VMGIFANCIFCLK (UniProt Q9UKK3) | 0.166 | 0.0255
18 | OPLAH_O14841_236_GHTACADAYLTPAIQR (UniProt O14841) | 0.0694 | 0.184
19 | OPLAH_O14841_408_LLPASFPCIFGPGENQPLSPEASR (UniProt O14841) | 0.121 | 0.408
20 | PARP14_Q460N5_1265_AILECAGQNVER (UniProt Q460N5) | -0.328 | -0.27
21 | PAPSS1_O43252_295_EREYLQCLHFDCLLDGGVINLSVPIVLTATHEDK (UniProt O43252) | 0.223 | 0.118

Single records, from the list above. Values in the order: probe-labelled cysteine peptide fold change (10 µM)	probe-labelled cysteine peptide fold change (50 µM)
PADI2_Q9Y2J8_647_FLGEVHCGTNVR (UniProt Q9Y2J8) in the list: -0.0696	0.00601
ORC5_O43913_10_PHLENVVLCR (UniProt O43913) in the list: -0.0685	0.186

Following part.

Row | Target | probe-labelled cysteine peptide fold change (10 µM) | probe-labelled cysteine peptide fold change (50 µM)
22 | PAICS_P22234_266_SESQCR (UniProt P22234) | 0.613 | 1.39
23 | OTUD6B_Q8N6M0_172_DCALTVVALR (UniProt Q8N6M0) | -0.00399 | -0.222
24 | OSBPL8_Q9BZF1_255_CWMDALELALK (UniProt Q9BZF1) | -0.00277 | -0.137
25 | PARP1_P09874_908_SANYCHTSQGDPIGLILLGEVALGNMYELK (UniProt P09874) | 0.191 | 0.241
26 | PARD3_Q8TEW0_66_LEHGDGGILDLDDILCDVADDKDR (UniProt Q8TEW0) | -0.345 | -0.0912
27 | PADI2_Q9Y2J8_612+613_PFGPQVEEECCLEMHVR (UniProt Q9Y2J8) | -0.381 | -0.657
28 | ORC1_Q13415_506_LHVSAVPESLPCR (UniProt Q13415) | 0.0177 | 0.102
29 | OSBP_P22059_224_VEDLSTCNDLIAK (UniProt P22059) | -0.0373 | 0.0508
30 | PAICS_P22234_63_ITSCIFQLLQEAGIK (UniProt P22234) | 0.0644 | -0.0116
31 | PAPOLA_P51003_677_TEEDETSEDANCLALSGHDK (UniProt P51003) | -0.0202 | 0.04
32 | PAIP2_Q9BPZ3_60_CFQEMLEEEEEHEWFIPAR (UniProt Q9BPZ3) | 0.154 | -0.171
33 | P4HB_P07237_312_ILEFFGLKKEECPAVR (UniProt P07237) | -0.209 | -1.04
34 | P3H1_Q32P28_670_CAIALWFTLDPR (UniProt Q32P28) | -0.244 | 0.17
35 | PARK7_Q99497_53_DVVICPDASLEDAK (UniProt Q99497) | -0.432 | 0.291
36 | PARP12_Q9H0J9_276_DSSGSVSPNTLSQEEGDQICLYHIR (UniProt Q9H0J9) | -0.172 | -0.673
37 | PAICS_P22234_81+91_CGETAFIAPQCEMIPIEWVCR (UniProt P22234) | -0.361 | 0.0615
38 | PAICS_P22234_91_CGETAFIAPQCEMIPIEWVCR (UniProt P22234) | 0.0818 | 0.171
39 | ORC3_Q9UBD5_561_ENVVNFIDCLVR (UniProt Q9UBD5) | 0.171 | 0.419
40 | PAPOLA_P51003_36_ETDCVLTQK (UniProt P51003) | -0.218 | -0.517
41 | OTUD4_Q01804_489_DEQAFPALSSSSVNQSASQSSNPCVQR (UniProt Q01804) | -0.0829 | -0.124
